# Patent US9625448B2, “Double caged GABA compounds, bis-CNB-GABA” (The Trustees of Princeton University, priority 2014, dated 2017)
# Tested on: cerebellar molecular layer interneurons
# Assay: Photolysis-evoked GABAergic currents in cerebellar molecular layer interneurons
# Assay type: cell-based
# Conditions: n=3
# Procedure: The biological properties of our synthetic bis-CNB-GABA were evaluated using whole-cell patch recording from cerebellar molecular layer interneurons.
# FIGS. 42A-42E illustrate physiological responses to photolysis of bis-CNB-GABA. FIG. 42A illustrates a cerebellar molecular layer interneuron visualized using Alexa 488 in the patch recording electrode solution. Referring to FIG. 42A, bis-CNB-GABA (0.6 mM) was photolyzed with a 405 nm laser spot in 3 different locations (indicated by 1, 2 and 3). Still referring to FIG. 42A, laser-evoked GABAergic currents are shown on the right panel. Still referring to FIG. 42A, gray traces show individual sweeps and black traces are averages. Still referring to FIG. 42A, the gray sweep at bottom indicates the laser flash (1 ms duration, intensity 5 mW) as recorded using a photodiode. FIG. 42B illustrates bis-CNB-GABA (1.4 mM) was photolyzed with a […] LED at progressively higher flash energies (0.25-1.1 mW, 5-50 ms, 1.25-55 μJ). FIG. 42C illustrates the same experiment as shown in FIG. 42B with Responses to mono-CNB-GABA (50 μM). […] FIG. 42E illustrates laser-evoked whole-cell current recorded in the absence and presence of 3 μM gabazine, a GABA receptor antagonist. […]
# To test whether bis-CNB-GABA-evoked responses resemble physiological events in their kinetics, we measured the kinetic properties of flash responses. […]
row,SMILES,"log-log slope, evoked current amplitude vs flash energy"
1,"O=C(CCCNC(C(=O)O)c1ccccc1[N+](=O)[O-])OC(C(=O)O)c1ccccc1[N+](=O)[O-] (centres unmarked) [bis-CNB-GABA, 2-((4-(Carboxy(2-nitrophenyl)methoxy)-4-oxobutyl)amino)-2-(2-nitrophenyl)acetic acid]",2.2±0.1
2,NCCCC(=O)OC(C(=O)O)c1ccccc1[N+](=O)[O-] (centres unmarked) [mono-CNB-GABA],1.3±0.1
